Laboratory results as given in PubChem BioAssay AID493014 (National Center for Advancing Translational Sciences (NCATS), 2011).
This is one part of the list. The main result of the screen is listed elsewhere. These columns were measured beside it and carry no call. Most of these compounds were active or inconclusive in the main read-out, so they are no random draw. Potencies come from curve fits of mixed quality, noted in brackets.

Experiment: qHTS Assay to Find Inhibitors of Chronic Active B-Cell Receptor Signaling
Conditions: ABC-DLBCL IkBa-CBG/CBR reporter, luminescence ratio (green luciferase fused to IkBa over red control in TMD8 lymphoma cells), 4 h
Outline: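 Compounds up to 46 uM were incubated four hours with TMD8 cells whose green CBG68 luciferase is fused to IkappaBalpha; red CBR luminescence normalised the signal, and concentration-effect curves were fitted to fusion, red and ratio data.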

[1] = measured here: CBR red luminescence, cell number
[2] = measured here: IkBa-CBG green luminescence

| Structure (SMILES) | AC50 [1] | AC50 [2] |
| --- | --- | --- |
| COc1ccccc1/C=C/C(C)=O | 29.1 µM [falling, single point] |  |
| CCN(C(=O)COC(=O)c1cc(-c2cccs2)nc2ccccc12)C1CCS(=O)(=O)C1 (centres undefined) | 35.5 µM [falling, single point] |  |
| Cc1cccnc1NC(=S)NC(=O)c1cncc(Br)c1 | 0.794 µM [rising, full curve, poor fit] |  |
| COc1ccc(/C=N\NC(=O)c2ccccc2Br)cc1COc1ccc(F)cc1 | 1.58 µM [falling, full curve, poor fit] |  |
| COc1cc(CCN2C(=O)c3cccc4cccc(c34)C2=O)c(S(=O)(=O)NCCCO)cc1OC | 11.2 µM [rising, partial curve, poor fit] |  |
| CC(C)c1ccc(C2CC(=O)c3cnc(N4CCc5ccccc5C4)nc3C2)cc1 (centres undefined) | 10 µM [falling, partial curve, poor fit] |  |
| O=C(/C=C/c1ccc(Cl)cc1Cl)N1CCc2ccccc21 | 29.1 µM [rising, single point] |  |
| Cc1cc(Cl)cc2c(N=Nc3ccccc3C(=O)O)c(O)[nH]c12 | 2 µM [falling, full curve] |  |
| O=C(C[n+]1cn(C(F)F)c2ccccc21)c1ccc(Br)cc1 | 20 µM [falling, single point] |  |
| COc1ccc(CCN(Cc2cccs2)S(=O)(=O)c2ccc(S(=O)(=O)N3CCC(C)CC3)cc2)cc1OC | 1.46 µM [rising, partial curve, poor fit] |  |
| Cc1cc(C(=O)N/N=C/c2cccs2)no1 | 32.6 µM [falling, single point] |  |
| CCOC(=O)c1sc(NC(=S)NC(=O)c2cccc(OC)c2)nc1C | 0.631 µM [falling, full curve] |  |
| CCC(C)(C(=O)NC1CCCC1)N(C(=O)CNC(C)=O)c1ccc(C)cc1 (centres undefined) | 29.1 µM [rising, single point] |  |
| CC(C)(C)c1ccc(C(=O)Nc2ccc(C(=O)N3CCOCC3)cc2)cc1 | 5.62 µM [rising, partial curve, poor fit] |  |
| O=C(N/N=C/c1ccccc1[N+](=O)[O-])c1ccc2nc[nH]c2c1 | 14.1 µM [falling, partial curve, poor fit] |  |
| COc1ccc(/C=N/NC(=O)c2cccnc2)cc1CSc1nc2ccccc2s1 | 23.1 µM [falling, single point] | 3.66 µM [falling, partial curve, poor fit] |

| Structure (SMILES) | AC50 [1] | AC50 [2] |
| --- | --- | --- |
| Cc1ccc(N(C(C)C(=O)N2CCCC2)S(C)(=O)=O)cc1 (centres undefined) | 0.112 µM [rising, full curve, poor fit] |  |
| O=C(NCC1COc2ccccc2O1)c1cc2ccccc2o1 (centres undefined) | 1.3 µM [rising, full curve, poor fit] |  |
| CS(=O)(=O)N1CCC(C(=O)Nc2ccccc2)CC1 | 5.8 µM [rising, full curve] |  |
| COCC(=O)N1CCN(c2cccc(C(F)(F)F)c2)CC1 | 0.1 µM [rising, full curve, poor fit] |  |
| C=CCn1c(N/N=C/c2ccc(O)cc2)nc2ccccc2c1=O |  | 0.0794 µM [rising, full curve, poor fit] |
| O=Cc1cn(CCOc2ccccc2F)c2ccccc12 | 3.16 µM [rising, partial curve, poor fit] |  |
| CCOCCCNC(=O)Cn1cc2c(n1)CCCCC2 | 2.06 µM [rising, partial curve, poor fit] |  |
| O=c1cc(-c2ccc(O)c(O)c2)oc2cc(O)c([C@@H]3O[C@H](CO)[C@@H](O)[C@H](O)[C@H]3O)c(O)c12 | 16.4 µM [rising, single point] |  |
| O=c1oc(-c2cccs2)nc2sc3c(c12)CCCC3 | 20.6 µM [falling, partial curve, poor fit] |  |
| Cc1cc(C(=O)Nc2ccccc2C(=O)O)oc1C | 0.447 µM [falling, full curve] |  |
| COCCCNC(=O)c1ccc2nc3ccccc3c(=O)n2c1 | 6.51 µM [falling, full curve] | 1.64 µM [rising, partial curve, poor fit] |
| COc1ccc(S(=O)(=O)n2nc(-c3ccc(Cl)cc3)cc2N)cc1 | 14.1 µM [falling, single point] |  |
| CS(=O)(=O)c1ccc(C(=O)OCC(=O)NCc2cccs2)cc1[N+](=O)[O-] | 7.31 µM [falling, partial curve] | 13 µM [rising, partial curve, poor fit] |
| Cc1cc(SCC(=O)Nc2cccc(S(=O)(=O)N3CCOCC3)c2)nc2ccccc12 | 35.5 µM [falling, single point] |  |
| CCOc1ccc(OCC(=O)Nc2nccs2)cc1 | 10 µM [falling, partial curve] |  |

In another format: results already given
Structure (SMILES) | AC50 [1] | AC50 [2]
Cc1cc(C(=O)Nc2ccccc2C(=O)O)oc1C | 0.447 µM [falling, full curve] | 
COCCCNC(=O)c1ccc2nc3ccccc3c(=O)n2c1 | 6.51 µM [falling, full curve] | 1.64 µM [rising, partial curve, poor fit]
